# In PubChem BioAssay AID493014 (National Center for Advancing Translational Sciences (NCATS), 2011):
# Hit rate of the full screen: of about 340,000 compounds, about 170 (0.05%) were called active. Inconclusive means that the source gave no clear call. Such entries were picked first, then a sample of the others. Calls come from the whole dose curve; as a rule, active = well fitted inhibition curve with a large enough effect in the signal ratio, with a control signal flat (not every such curve was filed as active); inconclusive = small, poorly fitted or top-dose-only effect, or effect the other way, or a change in a side signal; inactive = flat fitted curve, though single readings scatter; the % refers to the signal ratio. Where the call is inconclusive, the potency comes from a doubtful curve fit.
# Experiment: qHTS Assay to Find Inhibitors of Chronic Active B-Cell Receptor Signaling;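 for activity change, negative = inhibition: plate controls were basal doxycycline-induced cells for no effect and cells given 10 µM MG132 for full effect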
# Settings: ABC-DLBCL IkBa-CBG/CBR reporter, luminescence ratio (green luciferase fused to IkBa over red control in TMD8 lymphoma cells), 4 h; activity change, negative = inhibition: at 46.1 µM (top of the series) unless noted
# Method in brief: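 Doxycycline induced both beetle luciferases in TMD8 lymphoma cells; IKK-driven degradation limits the IkappaBalpha-fused green signal, while red luminescence normalises for cell number and nonspecific effects. Compounds tested up to 46 uM, 4 hrs.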
# Potency is the fitted concentration of half-maximal effect.
SMILES,"activity change, negative = inhibition",Potency
ClC(Cl)(c1nnnn1-c1ccccc1)c1nnnn1-c1ccccc1,inactive,–
Cc1cccc(-n2nnnc2S(C)(=O)=O)c1,–,"inconclusive: 1.41 µM [rising, full curve]"
COc1ccc(NC(=O)C2Cc3ccccc3O/C2=N\O)cc1 (stereo unspecified),inactive,–
COc1ccc(NC(=O)c2ccc(COc3ccccc3OC)o2)cc1OC,–,"inconclusive: 7.08 µM [falling, partial curve]"
COC(=O)c1ccccc1OCC(=O)NC1CCCCC1,inconclusive: -3.4%,–
CCOc1cc(NC(=S)NCc2ccco2)c(OCC)cc1NC(=O)C1CC1,–,"inconclusive: 11.6 µM [falling, partial curve, poor fit]"
N#CC1=C(N)N(c2ccccc2)C(=O)C1,inconclusive: -1.15%,–
C[C@@H]1NC(=O)/C(=C\c2ccccc2Cl)NC1=O,inactive,–
COc1ccc(N2CCN(C(=O)c3c(C)nn(-c4ccccc4)c3C)CC2)cc1,inconclusive: 0.284%,–
CC(C)(C)N=Cc1cc(-c2ccccc2)sc1O,inconclusive: -0.159%,–
C[C@H]1C[C@@H]2[C@H]([C@@H](O)C[C@@]3(C)[C@H]2CC[C@]3(O)C(=O)CO)[C@@]2(C)C=CC(=O)C=C12,–,"inconclusive: 0.282 µM [falling, full curve, poor fit]"
COc1ccc(Nc2ccc(S(=O)(=O)N3CCCCC3)cc2[N+](=O)[O-])cc1Cl,inconclusive: 7.19%,–
Nc1ccc(Cc2ccc(N)c(C(=O)O)c2)cc1C(=O)O,–,"inconclusive: 25.9 µM [falling, partial curve, poor fit]"
CCC(=O)Nc1ccc(C(=O)OCC(=O)c2ccc(C)c([N+](=O)[O-])c2)cc1,inconclusive: -0.741%,–
CCN(CC)C(=O)C1CCCN(c2ncnc3c2cnn3-c2ccc(Cl)cc2)C1 (stereo unspecified),inconclusive: -24%,–
Cc1ccc(/C=C2/SC(=S)N(CC(=O)Nc3ncc(Cc4ccc(C)cc4)s3)C2=O)cc1,inactive,–
COc1ccc(-c2nnc(SCCc3ccccc3)n2N)cc1,inconclusive: -1.83%,–
Cc1cc(Nc2ncc(Cl)cc2Cl)n[nH]1,inconclusive: 6.71%,–
CCOc1cccc2sc(NC(=O)CCS(=O)(=O)c3ccccc3)nc12,–,"inconclusive: 22.4 µM [falling, single point]"
Cc1ccc(S(=O)(=O)N2CCCCC2CCNC(=O)C(=O)NCc2ccncc2)cc1 (stereo unspecified),–,"inconclusive: 14.6 µM [rising, partial curve, poor fit]"
O=C(COC(=O)CNC(=O)C12CC3CC(CC(C3)C1)C2)NC1CCS(=O)(=O)C1 (stereo unspecified),inconclusive: -2.11%,–
